Screen size: about 360,000 compounds; about 9,100 (2.5%) were called active. Inconclusive means that the source gave no clear call. Such entries were picked first, then a sample of the others. No stated cut-off is given here; in the data, active means max response below about -50%; inconclusive means no clear call, values can overlap the other calls; inactive means above that.
molecular target: D(3) dopamine receptor (Homo sapiens) (UniProt P35462); experiment: qHTS of D3 Dopamine Receptor Antagonist: qHTS; settings: D3R cells, DiscoveRx beta-arrestin luminescence, antagonist mode; hits give low values
Outline: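 Cells expressing the human receptor were seeded at 1500 cells/well, incubated overnight at 37 degrees C in 5% CO2, then exposed to library compounds with dopamine controls for 90 minutes at 37 degrees C before luminescent detection.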
On the % scale 0 is the no-effect control and ±100 the full control effect.

By UniProt entry, the sequences of proteins in these tests, tags left out.
UniProt P35462, whole entry, looked up: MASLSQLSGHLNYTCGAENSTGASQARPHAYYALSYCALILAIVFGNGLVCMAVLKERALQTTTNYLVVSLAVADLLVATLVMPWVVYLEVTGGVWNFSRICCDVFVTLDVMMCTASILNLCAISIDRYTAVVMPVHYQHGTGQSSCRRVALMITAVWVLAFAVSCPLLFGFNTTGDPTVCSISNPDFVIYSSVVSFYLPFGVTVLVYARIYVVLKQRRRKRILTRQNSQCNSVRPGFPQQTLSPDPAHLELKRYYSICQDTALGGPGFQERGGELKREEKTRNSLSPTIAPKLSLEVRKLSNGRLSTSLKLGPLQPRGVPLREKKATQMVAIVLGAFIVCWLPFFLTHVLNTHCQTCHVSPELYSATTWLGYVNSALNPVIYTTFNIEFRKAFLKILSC

Max response, negative = inhibition, inactive:
Nc1c(-c2ccccc2)sc2ccc3ccccc3[n+]12 -5%
CCOC(=O)NC1CCc2cc(OC)c(OC)c(OC)c2-c2ccc(SC)c(=O)cc21 (stereo unspecified) -17.3%
CCOCCCNC(=O)/C(C#N)=C/c1ccc([N+](=O)[O-])o1 -26.6%
Cc1cccc(NC(=O)c2ncn3c2C(=O)N(C)CC3)c1 -2.95%
O=C(CN(c1cccc(C(F)(F)F)c1)S(=O)(=O)c1ccc(Cl)c([N+](=O)[O-])c1)NCc1ccccc1 28.8%
CCOC(=O)c1ccc(NC(=S)NC2CC(C)(C)NC(C)(C)C2)cc1 1.68%
CC1=CSC2=NC(=O)/C(=C\c3cccn3-c3ccccc3)C(=N)N12 9.53%
CN(C)c1nc(-c2cccs2)cc(C(F)(F)F)c1C#N 8.09%
Cc1ccc2c(c1)N(C(=O)CCC(=O)NCc1ccccc1)CC(C)O2 (stereo unspecified) -15.4%
COc1ccccc1CNc1nc(=S)[nH]c2cc(OC)c(OC)cc12 -20.2%
COc1ccc(NC(=O)C2(C)Cc3c(-c4cccc(C(F)(F)F)c4)ccnc3O2)cc1OC (stereo unspecified) -9.09%

3 structures already listed, sorted by heavy-atom count, low to high:
Max response, negative = inhibition, inactive:
CCOC(=O)c1ccc(NC(=S)NC2CC(C)(C)NC(C)(C)C2)cc1 1.68%
COc1ccc(NC(=O)C2(C)Cc3c(-c4cccc(C(F)(F)F)c4)ccnc3O2)cc1OC (stereo unspecified) -9.09%
O=C(CN(c1cccc(C(F)(F)F)c1)S(=O)(=O)c1ccc(Cl)c([N+](=O)[O-])c1)NCc1ccccc1 28.8%

Following part.

Max response, negative = inhibition, active:
CCC(Sc1nc(C)cc(C)n1)C(=O)Nc1cc(C)on1 (stereo unspecified) -52.8%
Cc1ccc(C(=O)CSC2=C(C#N)C(c3ccco3)C3=C(CC(C)(C)CC3=O)N2)cc1 (stereo unspecified) -59.1%
COc1ccc(Cl)cc1NS(=O)(=O)c1cccc(C(=O)NC2CCN(Cc3ccccc3)CC2)c1 -104%

Max response, negative = inhibition, inconclusive:
CCN1CCN(Cc2cc(=O)oc3cc4c(cc23)CCC4)CC1 -41.2%
O=C(CCN1CCCC1)Nc1ccccc1 -33.2%
COc1ccc(C2/C(=C(\O)c3ccc4c(c3)OCCO4)C(=O)C(=O)N2Cc2ccco2)c(OC)c1 (stereo unspecified) -38.7%
CCOC(=O)N1CCN(C(=O)C(=O)NNC(=O)COc2ccc(Cl)c(C)c2)CC1 -39%
Cc1ccc(NC(=O)CN(C)Cc2cccs2)cc1Cl -33.4%
O=C(Nc1ccc2c(c1)CCC2)c1ncoc1-c1ccccc1F -44.3%
Clc1cccc(Cn2ncc3ccccc32)c1 -36.7%
O=C(CNC(=O)c1ccco1)NCC(=O)OCc1cccc(Cl)c1 -36.3%
c1ccc(CSc2ncnc3c2cnn3Cc2ccccc2)cc1 -38%
CN=CC1=C(O)CC(C)(C)CC1=O -44.1%
CC(C)OC(=O)CSc1nc2cccnc2n1-c1ccc(F)cc1 -38.5%
CCCS(=O)(=O)N1CCN(CC2CC=CCC2)CC1 (stereo unspecified) -48.5%

From PubChem BioAssay AID652054 (National Center for Advancing Translational Sciences (NCATS), 2013)
